Source: patent publication US9005965B2, “Stem cells culture systems” (Hadasit Medical Research Services & Development Limited, priority 2004, dated 2015)
“Also recorded” adds a separate entry of the source. For at least one compound, name, drawing or mass did not settle the structure.

Test system: hESC-derived EBs
Assay: EB formation in presence or absence of nicotinamide: morphology, size, cell number
Type: cell-based, human
Method: Human ES cells were removed from the feeders by treatment with dispase (10 mg/ml; Gibco), and/or type IV collagenase (1 mg/ml; Gibco). The clusters of undifferentiated cells that were obtained were further triturated into smaller clumps within PBS. These clumps were cultured for various periods in suspension within bacteriological dishes precoated with 0.1% low melting temperature agarose in DMEM (Gibco), supplemented with 10-20% FCS (Biological Industries, Beit Haemek), 1 mM L-glutamine, 0.1 mM β-mercaptoethanol, 1% non-essential amino acid stock, 50 units/ml penicillin, 50 μg/ml streptomycin (all from Gibco Invitrogen Corporation products, USA) in the presence or absence of nicotinamide 10 mM (Sigma). In some experiments DMEM and FCS were replaced by 86% KO-DMEM and 14% KOSR or by Neurobasal medium supplemented by N2 (Gibco).

## CC1=C(/C=C/C(C)=C/C=C/C(C)=C/C(=O)O)C(C)(C)CCC1 [RA, Retinoic acid]
EBs cultured in the presence of RA
  cystic formation in EBs: extensive cystic formation; also recorded: included multiple cysts
In the presence of RA
  number of differentiated cells obtained: low
